# Patent US8927009B2 (AbbVie Inc., priority 2009, dated 2015)
# At least one compound was matched to its structure with a doubt left.
# How the values were obtained:
# Type in all cases: physicochemical
# [1] = Comparative storage study at ambient temperature (HPLC, total sulfoxides); details: ambient conditions, 3 months
# [2] = Antioxidant testing, two-week stress test at 40° C. with nitrogen purging (total sulfoxides); details: 100 mg/g in Lipoid S75 MCT
# [3] = BHA as antioxidant, stress test at 40° C. without nitrogen purging (total sulfoxides); details: 15% by weight free base in IPT-253, 40° C., no nitrogen purging
structure (smiles),measurement,setting,value
CC1(C)CCC(c2ccc(Cl)cc2)=C(CN2CCN(c3ccc(C(=O)NS(=O)(=O)c4ccc(N[C@H](CCN5CCOCC5)CSc5ccccc5)c(S(=O)(=O)C(F)(F)F)c4)cc3)CC2)C1 [ABT-263],total sulfoxide levels,[1]; 10% by weight in IOT-343 (Imwitor 742/oleic acid/Tween 80 30:40:30),1.3%
same,total sulfoxide levels,[1]; 10% by weight in IPT-442 (Imwitor 742/Phosal 53 MCT/Tween 80 40:40:20),0.5%
same,solution appearance (printed in place of % w/w total sulfoxides),[2]; Na metabisulfite 0.1% (w/w) added as 15% w/v aqueous stock,cloudy solution
same,solution appearance (printed in place of % w/w total sulfoxides),[2]; Na thiosulfate 0.1% (w/w) added as 15% w/v aqueous stock,cloudy solution
same,% Total sulfoxides,"[3]; 0.2% BHA, 0 weeks",0.06%
same,% Total sulfoxides,"[3]; 0.2% BHA, 1 week",0.29%
same,% Total sulfoxides,"[3]; 0.2% BHA, 2 weeks",0.49%
same,% Total sulfoxides,"[3]; 0.2% BHA, 3 weeks",0.58%
same,% Total sulfoxides,"[3]; 0.2% BHA, 4 weeks",0.68%
same,% Total sulfoxides,"[3]; no antioxidant, 0 weeks",not detectable
same,% Total sulfoxides,"[3]; no antioxidant, 1 week",0.26%
same,% Total sulfoxides,"[3]; no antioxidant, 2 weeks",0.47%
same,% Total sulfoxides,"[3]; no antioxidant, 3 weeks",0.56%
same,% Total sulfoxides,"[3]; no antioxidant, 4 weeks",0.67%
